In patent US20250163138A1 (Alexion, published 2025):
No constants are given. Whether binding was seen depends on the method and setting. Some entries that bind do so weakly or less than the wild type.

By UniProt entry, the sequences of proteins in these tests, tags left out. Residues count along the entry.
UniProt P01031, residues 19-1676: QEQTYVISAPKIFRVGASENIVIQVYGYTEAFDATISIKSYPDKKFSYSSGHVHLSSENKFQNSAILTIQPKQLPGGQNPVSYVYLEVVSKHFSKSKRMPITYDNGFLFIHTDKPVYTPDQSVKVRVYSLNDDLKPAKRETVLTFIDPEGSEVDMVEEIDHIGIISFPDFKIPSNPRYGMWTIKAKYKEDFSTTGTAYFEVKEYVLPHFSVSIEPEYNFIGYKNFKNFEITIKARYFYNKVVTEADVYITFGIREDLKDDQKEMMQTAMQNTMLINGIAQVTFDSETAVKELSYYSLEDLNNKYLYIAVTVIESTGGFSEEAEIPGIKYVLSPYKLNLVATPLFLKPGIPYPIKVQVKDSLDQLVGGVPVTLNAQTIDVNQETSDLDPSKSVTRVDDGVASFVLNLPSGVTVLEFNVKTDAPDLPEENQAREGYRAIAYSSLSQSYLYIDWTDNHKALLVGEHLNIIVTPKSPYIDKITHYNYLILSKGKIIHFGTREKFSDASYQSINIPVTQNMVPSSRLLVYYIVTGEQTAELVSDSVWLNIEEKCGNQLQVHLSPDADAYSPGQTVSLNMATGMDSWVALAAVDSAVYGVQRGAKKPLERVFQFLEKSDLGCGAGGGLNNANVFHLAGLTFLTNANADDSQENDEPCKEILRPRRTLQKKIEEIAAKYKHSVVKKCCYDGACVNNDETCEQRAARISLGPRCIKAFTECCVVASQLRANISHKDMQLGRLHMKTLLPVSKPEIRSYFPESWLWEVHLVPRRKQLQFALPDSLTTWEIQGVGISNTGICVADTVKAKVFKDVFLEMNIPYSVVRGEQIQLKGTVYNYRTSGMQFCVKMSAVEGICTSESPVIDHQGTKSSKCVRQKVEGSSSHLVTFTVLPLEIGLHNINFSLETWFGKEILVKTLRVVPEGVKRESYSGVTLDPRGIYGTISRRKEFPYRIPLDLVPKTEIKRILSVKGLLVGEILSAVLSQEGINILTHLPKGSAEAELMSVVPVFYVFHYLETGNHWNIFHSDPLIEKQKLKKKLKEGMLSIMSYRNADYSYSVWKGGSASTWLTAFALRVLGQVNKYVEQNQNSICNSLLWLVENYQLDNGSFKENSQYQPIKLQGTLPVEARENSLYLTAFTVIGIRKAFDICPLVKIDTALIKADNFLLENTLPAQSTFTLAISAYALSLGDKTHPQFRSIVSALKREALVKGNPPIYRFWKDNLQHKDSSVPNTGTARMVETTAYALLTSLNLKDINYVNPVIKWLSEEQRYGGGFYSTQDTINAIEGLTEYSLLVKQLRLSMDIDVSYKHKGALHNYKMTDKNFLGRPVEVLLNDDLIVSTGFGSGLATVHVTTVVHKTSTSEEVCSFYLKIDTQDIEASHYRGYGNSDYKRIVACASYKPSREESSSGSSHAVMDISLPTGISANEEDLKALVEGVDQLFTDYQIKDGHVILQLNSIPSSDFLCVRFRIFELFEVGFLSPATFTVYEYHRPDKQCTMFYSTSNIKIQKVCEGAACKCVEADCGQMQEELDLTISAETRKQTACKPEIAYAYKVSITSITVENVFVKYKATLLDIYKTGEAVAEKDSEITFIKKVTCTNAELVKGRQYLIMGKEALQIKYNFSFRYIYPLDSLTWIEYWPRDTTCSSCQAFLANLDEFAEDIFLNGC
UniProt P02768, residues 25-609: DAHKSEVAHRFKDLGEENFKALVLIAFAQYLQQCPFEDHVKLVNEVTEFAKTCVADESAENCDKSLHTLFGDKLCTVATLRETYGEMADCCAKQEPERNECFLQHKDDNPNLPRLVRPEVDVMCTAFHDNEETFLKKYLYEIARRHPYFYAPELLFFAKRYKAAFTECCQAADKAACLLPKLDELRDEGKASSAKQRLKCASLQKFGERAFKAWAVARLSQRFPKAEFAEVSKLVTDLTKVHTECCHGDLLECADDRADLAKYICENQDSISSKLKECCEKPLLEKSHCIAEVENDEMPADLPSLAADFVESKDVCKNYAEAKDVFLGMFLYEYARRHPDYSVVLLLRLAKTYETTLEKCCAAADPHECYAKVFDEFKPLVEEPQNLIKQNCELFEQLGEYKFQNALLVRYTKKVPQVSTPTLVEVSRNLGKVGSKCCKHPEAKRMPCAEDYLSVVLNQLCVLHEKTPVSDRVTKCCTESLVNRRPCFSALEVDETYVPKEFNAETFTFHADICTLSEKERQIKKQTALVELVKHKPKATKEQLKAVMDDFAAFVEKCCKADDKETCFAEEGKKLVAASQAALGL

How the values were obtained:
[1] = molecular target: T1, human complement protein C5 (human, UniProt P01031 19-1676); assay: SPR (Biacore 3000), biotin-hC5 on CAP chip, pH 7.4
T1 construct: Native C5 is a two-chain protein made from one precursor; also called hC5; human C5

human serum albumin [2] = molecular target: T2, human serum albumin (human, UniProt P02768 25-609); assay: SPR (Biacore 3000), biotin-hC5 on CAP chip, pH 7.4
T2 construct: also called HSA; human albumin

[3] = molecular target: T1, human complement protein C5; assay: sandwich: biotin-hC5 on CAP chip, fusion, then albumin; pH 7.4
human serum albumin [4] = molecular target: T2, human serum albumin; assay: as above
[5] = molecular target: cynomolgus monkey (cyno) complement protein C5 (cynomolgus monkey); assay: BLI, VHH-His on anti-penta-His tips, 50 nM C5
[6] = molecular target: human complement protein C5 (human) (UniProt P01031); assay: BLI, VHH-His on anti-penta-His tips, 50 nM C5
[7] = molecular target: human complement protein C5 (human) (UniProt P01031); assay: SPR (Biacore 3000), biotin-hC5 on CAP chip, pH 7.4
[8] = molecular target: human complement protein C5 (human) (UniProt P01031); assay: sandwich: biotin-hC5 on CAP chip, fusion, then albumin; pH 7.4

binding [1] | binding (human serum albumin [2]) | binding [3] | binding (human serum albumin [4]) | binding [5] | binding [6] | binding [7] | binding [8] | Binder
binds | binds | binds | binds | – | – | – | – | TPP-3228 (bispecific antibody) EVQLVESGGGLVKPGGSLRLSCAASGRPVSNYAAAWFRQAPGKEREFVSAINWQKTATYADSVKGRFTISRDNAKNSLYLQMNSLRAEDTAVYYCAAVFRVVAPKTQYDYDYWGQGTLVTVSSGGGGGGGPEVQLVESGGGLVQPGGSLRLSCAASGRAHSDYAMAWFRQAPGQEREFVAGIGWSGGDTLYADSVRGRFTNSRDNSKNTLYLQMNSLRAEDTAVYYCAARQGQYIYSSMRSDSYDYWGQGTLVTVSS
binds | binds | binds | binds | – | – | – | – | TPP-3234 (bispecific antibody) EVQLVESGGGLVKPGGSLRLSCAASGRPVSNYAAAWFRQAPGKEREFVSAINWQKTATYADSVKGRFTISRDNAKNSLYLQMNSLRAEDTAVYYCAAVFRVVAPKTQYDYDYWGQGTLVTVSSAPELPGGPEVQLVESGGGLVQPGGSLRLSCAASGRAHSDYAMAWFRQAPGQEREFVAGIGWSGGDTLYADSVRGRFTNSRDNSKNTLYLQMNSLRAEDTAVYYCAARQGQYIYSSMRSDSYDYWGQGTLVTVSS
binds | binds | binds | binds | – | – | – | – | TPP-3235 (bispecific antibody) EVQLVESGGGLVKPGGSLRLSCAASGRPVSNYAAAWFRQAPGKEREFVSAINWQKTATYADSVKGRFTISRDNAKNSLYLQMNSLRAEDTAVYYCAAVFRVVAPKTQYDYDYWGQGTLVTVSSSEPQPQPGEVQLVESGGGLVQPGGSLRLSCAASGRAHSDYAMAWFRQAPGQEREFVAGIGWSGGDTLYADSVRGRFTNSRDNSKNTLYLQMNSLRAEDTAVYYCAARQGQYIYSSMRSDSYDYWGQGTLVTVSS
binds | binds | binds | binds | – | – | – | – | TPP-3229 (bispecific antibody) EVQLVESGGGLVKPGGSLRLSCAASGRPVSNYAAAWFRQAPGKEREFVSAINWQKTATYADSVKGRFTISRDNAKNSLYLQMNSLRAEDTAVYYCAAVFRVVAPKTQYDYDYWGQGTLVTVSSGGGGGGGGPEVQLVESGGGLVQPGGSLRLSCAASGRAHSDYAMAWFRQAPGQEREFVAGIGWSGGDTLYADSVRGRFTNSRDNSKNTLYLQMNSLRAEDTAVYYCAARQGQYIYSSMRSDSYDYWGQGTLVTVSS
binds | binds | binds | binds | – | – | – | – | TPP-3230 (bispecific antibody) EVQLVESGGGLVKPGGSLRLSCAASGRPVSNYAAAWFRQAPGKEREFVSAINWQKTATYADSVKGRFTISRDNAKNSLYLQMNSLRAEDTAVYYCAAVFRVVAPKTQYDYDYWGQGTLVTVSSPAPNLLGGPEVQLVESGGGLVQPGGSLRLSCAASGRAHSDYAMAWFRQAPGQEREFVAGIGWSGGDTLYADSVRGRFTNSRDNSKNTLYLQMNSLRAEDTAVYYCAARQGQYIYSSMRSDSYDYWGQGTLVTVSS
– | – | – | – | binds | binds | – | – | LCP0296 (VHH, llama anti-C5 VHH, tested as VHH-His fusion; not shown: His-tag) VHH: EVQLVESGGGVVQAGDSLTLTCTAPVGTISDYGMGWFRQAPGKEREFVASISWGGMWTDYADSVKGRFTISRDNDKNAVYLRMNSLNAEDTAVYYCGRGRMYRGIGNSLAQPKSYGYWGQGTQVTVSS
binds | binds | binds | binds | – | – | – | – | TPP-3233 (bispecific antibody) EVQLVESGGGLVKPGGSLRLSCAASGRPVSNYAAAWFRQAPGKEREFVSAINWQKTATYADSVKGRFTISRDNAKNSLYLQMNSLRAEDTAVYYCAAVFRVVAPKTQYDYDYWGQGTLVTVSSGGGGGGGGGGGGEVQLVESGGGLVQPGGSLRLSCAASGRAHSDYAMAWFRQAPGQEREFVAGIGWSGGDTLYADSVRGRFTNSRDNSKNTLYLQMNSLRAEDTAVYYCAARQGQYIYSSMRSDSYDYWGQGTLVTVSS
– | – | – | – | binds | binds | – | – | LCP0115 (VHH, llama anti-C5 VHH, tested as VHH-His fusion; not shown: His-tag) VHH: EVQLVESGGGLVQAGGSLRLSCAASGRTFSGILSPYAVGWFRQAPGKGREFVSTITSGGSAIYTDSVKGRFTLSRDNAKDTVYLQMNSLKPEDTAVYYCAVRTRRYGSNLGEVPQENEYGYWGQGTQVTVSS
– | – | – | – | binds | binds | – | – | LCP0302 (VHH, llama anti-C5 VHH, tested as VHH-His fusion; not shown: His-tag) VHH: EVQLVESGGGLVQAGGSLRLSCAASGRTFSGILSAYAVGWFRQAPGKEREFVSTITSGGSTLSADSVKGRFTLSRDNAKDTVYLQMNSLKPEDTAVYYCAVRTWPYGSNRGEVPTENEYGHWGQGTQVTVSS
– | – | – | – | binds | binds | – | – | LCP0136 (VHH, llama anti-C5 VHH, tested as VHH-His fusion; not shown: His-tag) VHH: EVQLVESGGGLVQPGESLRLSCAISGFAFTDVGMSWVRQAPGKGLEWVSSISSGSSITTYSDSVKGRFTISRDNARNTLFLQMNSLKPEDTAVYYCGRYYCTGLGCHPRRDSALWGQGTQVTVSS
binds | binds | binds | binds | – | – | – | – | TPP-3227 (bispecific antibody) EVQLVESGGGLVKPGGSLRLSCAASGRPVSNYAAAWFRQAPGKEREFVSAINWQKTATYADSVKGRFTISRDNAKNSLYLQMNSLRAEDTAVYYCAAVFRVVAPKTQYDYDYWGQGTLVTVSSASTKGPSVFPLAPEVQLVESGGGLVQPGGSLRLSCAASGRAHSDYAMAWFRQAPGQEREFVAGIGWSGGDTLYADSVRGRFTNSRDNSKNTLYLQMNSLRAEDTAVYYCAARQGQYIYSSMRSDSYDYWGQGTLVTVSS
– | – | – | – | binds | binds | – | – | LCP0095 (VHH, llama anti-C5 VHH, tested as VHH-His fusion; not shown: His-tag) VHH: EVQLVESGGGLVQAGGSLRLSCTASGRTISTTVMAWFRQAPGKEREFVAADHWGDAGTVYADSVKGRFTISRDNAKNTVYLQMNYLKPEDTSVYYCAARPPTYVGTSRDSRAYDYWGQGTQVTVSS
– | – | – | – | binds | binds | – | – | LCP0123 (VHH, llama anti-C5 VHH, tested as VHH-His fusion; not shown: His-tag) VHH: EVQLVESGGGLVQAGGSLTLSCAMSGGTRPFEDYVMAWFRQATGKEREFVATITWMGETTYYKDSVNGRFAISRDNAENTVALQMNSLEPEDTAVYFCAAHSRSSFSTSGGRYNPRPTEYDYWGQGTQVTVSS
– | – | – | – | binds | binds | – | – | LCP0146 (VHH, llama anti-C5 VHH, tested as VHH-His fusion; not shown: His-tag) VHH: EVQLVESGGGLVQAGGSLRLSCAASGRAFSDYAMAWFRQAPGKEREFVAGIGWSGGDTLYADSVRGRFTNSKDNAKNRMSLQMNSLKPEDTAVYYCAARQGQYIYSSMRSDSYDYWGQGTQVTVSS
– | – | – | – | binds | binds | – | – | LCP0143 (VHH, llama anti-C5 VHH, tested as VHH-His fusion; not shown: His-tag) VHH: EVQLVESGGGLVQAGGSLRLSCAAPEMGATINVMAWYRQAPGKQRELVARLPLDNNIDYGDFAKGRFTISRDITRNTVYLQMNNLKPDDTAVYYCNVLLSRQINGAYVHWGQGTQVTVSS
– | binds | – | binds | – | – | binds | binds | CRL0500 (bispecific antibody, anti-albumin VHH / (G4S)3 / anti-C5 VHH fusion, purified by Protein A; also called CRL0500 (HSA/C5)) EVQLVESGGGLVKPGGSLRLSCAASGRPVSNYAAAWFRQAPGKEREFVSAINWQKTATYADSVKGRFTISRDNAKNSLYLQMNSLRAEDTAVYYCAAVFRVVAPKTQYDYDYWGQGTLVTVSSGGGGSGGGGSGGGGSEVQLVESGGGLVQPGGSLRLSCAASGRAHSDYAMAWFRQAPGQEREFVAGIGWSGGDTLYADSVRGRFTNSRDNSKNTLYLQMNSLRAEDTAVYYCAARQGQYIYSSMRSDSYDYWGQGTLVTVSS
binds | binds | binds | binds | – | – | – | – | TPP-3226 (bispecific antibody) EVQLVESGGGLVKPGGSLRLSCAASGRPVSNYAAAWFRQAPGKEREFVSAINWQKTATYADSVKGRFTISRDNAKNSLYLQMNSLRAEDTAVYYCAAVFRVVAPKTQYDYDYWGQGTLVTVSSASTKGPEVQLVESGGGLVQPGGSLRLSCAASGRAHSDYAMAWFRQAPGQEREFVAGIGWSGGDTLYADSVRGRFTNSRDNSKNTLYLQMNSLRAEDTAVYYCAARQGQYIYSSMRSDSYDYWGQGTLVTVSS
binds | binds | binds | binds | – | – | – | – | TPP-3232 (bispecific antibody) EVQLVESGGGLVKPGGSLRLSCAASGRPVSNYAAAWFRQAPGKEREFVSAINWQKTATYADSVKGRFTISRDNAKNSLYLQMNSLRAEDTAVYYCAAVFRVVAPKTQYDYDYWGQGTLVTVSSGGGGGGEVQLVESGGGLVQPGGSLRLSCAASGRAHSDYAMAWFRQAPGQEREFVAGIGWSGGDTLYADSVRGRFTNSRDNSKNTLYLQMNSLRAEDTAVYYCAARQGQYIYSSMRSDSYDYWGQGTLVTVSS
binds | binds | binds | binds | – | – | – | – | TPP-3231 (bispecific antibody) EVQLVESGGGLVKPGGSLRLSCAASGRPVSNYAAAWFRQAPGKEREFVSAINWQKTATYADSVKGRFTISRDNAKNSLYLQMNSLRAEDTAVYYCAAVFRVVAPKTQYDYDYWGQGTLVTVSSPNLLGGPEVQLVESGGGLVQPGGSLRLSCAASGRAHSDYAMAWFRQAPGQEREFVAGIGWSGGDTLYADSVRGRFTNSRDNSKNTLYLQMNSLRAEDTAVYYCAARQGQYIYSSMRSDSYDYWGQGTLVTVSS
